# Test results: the supplement of paper PMC12823440, “Inhibitors supercharge kinase turnover through native proteolytic circuits” (Nature, 2025)
# Sequences of proteins named here, by UniProt entry; tags and fusion partners are left off. A change or cut given only in a name is not applied to a line headed by its entry.
# UniProt P29317, whole entry: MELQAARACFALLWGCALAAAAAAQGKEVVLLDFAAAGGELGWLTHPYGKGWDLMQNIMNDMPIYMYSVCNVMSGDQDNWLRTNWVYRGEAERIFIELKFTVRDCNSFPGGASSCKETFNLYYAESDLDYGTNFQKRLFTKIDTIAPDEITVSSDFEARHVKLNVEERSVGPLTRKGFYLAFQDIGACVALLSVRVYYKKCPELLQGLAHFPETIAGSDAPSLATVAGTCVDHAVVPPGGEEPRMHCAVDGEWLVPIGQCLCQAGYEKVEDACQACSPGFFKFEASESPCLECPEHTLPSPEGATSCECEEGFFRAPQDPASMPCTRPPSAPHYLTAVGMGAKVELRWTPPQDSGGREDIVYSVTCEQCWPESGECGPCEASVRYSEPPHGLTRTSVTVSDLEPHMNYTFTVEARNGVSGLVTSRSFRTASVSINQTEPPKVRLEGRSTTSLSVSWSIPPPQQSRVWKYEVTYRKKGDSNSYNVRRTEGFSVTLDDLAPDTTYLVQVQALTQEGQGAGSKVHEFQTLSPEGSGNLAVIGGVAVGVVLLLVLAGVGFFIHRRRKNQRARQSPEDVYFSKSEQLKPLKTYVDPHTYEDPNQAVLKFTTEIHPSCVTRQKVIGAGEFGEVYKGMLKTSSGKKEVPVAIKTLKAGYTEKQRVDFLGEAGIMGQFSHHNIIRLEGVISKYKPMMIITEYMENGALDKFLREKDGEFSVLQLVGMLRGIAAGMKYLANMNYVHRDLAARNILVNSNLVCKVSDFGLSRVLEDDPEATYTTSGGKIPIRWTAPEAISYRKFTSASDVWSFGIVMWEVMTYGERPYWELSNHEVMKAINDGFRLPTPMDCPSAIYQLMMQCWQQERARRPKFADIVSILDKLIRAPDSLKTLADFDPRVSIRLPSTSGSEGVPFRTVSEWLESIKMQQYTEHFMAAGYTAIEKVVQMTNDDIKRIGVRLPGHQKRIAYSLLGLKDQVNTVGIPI
# UniProt P21860, whole entry: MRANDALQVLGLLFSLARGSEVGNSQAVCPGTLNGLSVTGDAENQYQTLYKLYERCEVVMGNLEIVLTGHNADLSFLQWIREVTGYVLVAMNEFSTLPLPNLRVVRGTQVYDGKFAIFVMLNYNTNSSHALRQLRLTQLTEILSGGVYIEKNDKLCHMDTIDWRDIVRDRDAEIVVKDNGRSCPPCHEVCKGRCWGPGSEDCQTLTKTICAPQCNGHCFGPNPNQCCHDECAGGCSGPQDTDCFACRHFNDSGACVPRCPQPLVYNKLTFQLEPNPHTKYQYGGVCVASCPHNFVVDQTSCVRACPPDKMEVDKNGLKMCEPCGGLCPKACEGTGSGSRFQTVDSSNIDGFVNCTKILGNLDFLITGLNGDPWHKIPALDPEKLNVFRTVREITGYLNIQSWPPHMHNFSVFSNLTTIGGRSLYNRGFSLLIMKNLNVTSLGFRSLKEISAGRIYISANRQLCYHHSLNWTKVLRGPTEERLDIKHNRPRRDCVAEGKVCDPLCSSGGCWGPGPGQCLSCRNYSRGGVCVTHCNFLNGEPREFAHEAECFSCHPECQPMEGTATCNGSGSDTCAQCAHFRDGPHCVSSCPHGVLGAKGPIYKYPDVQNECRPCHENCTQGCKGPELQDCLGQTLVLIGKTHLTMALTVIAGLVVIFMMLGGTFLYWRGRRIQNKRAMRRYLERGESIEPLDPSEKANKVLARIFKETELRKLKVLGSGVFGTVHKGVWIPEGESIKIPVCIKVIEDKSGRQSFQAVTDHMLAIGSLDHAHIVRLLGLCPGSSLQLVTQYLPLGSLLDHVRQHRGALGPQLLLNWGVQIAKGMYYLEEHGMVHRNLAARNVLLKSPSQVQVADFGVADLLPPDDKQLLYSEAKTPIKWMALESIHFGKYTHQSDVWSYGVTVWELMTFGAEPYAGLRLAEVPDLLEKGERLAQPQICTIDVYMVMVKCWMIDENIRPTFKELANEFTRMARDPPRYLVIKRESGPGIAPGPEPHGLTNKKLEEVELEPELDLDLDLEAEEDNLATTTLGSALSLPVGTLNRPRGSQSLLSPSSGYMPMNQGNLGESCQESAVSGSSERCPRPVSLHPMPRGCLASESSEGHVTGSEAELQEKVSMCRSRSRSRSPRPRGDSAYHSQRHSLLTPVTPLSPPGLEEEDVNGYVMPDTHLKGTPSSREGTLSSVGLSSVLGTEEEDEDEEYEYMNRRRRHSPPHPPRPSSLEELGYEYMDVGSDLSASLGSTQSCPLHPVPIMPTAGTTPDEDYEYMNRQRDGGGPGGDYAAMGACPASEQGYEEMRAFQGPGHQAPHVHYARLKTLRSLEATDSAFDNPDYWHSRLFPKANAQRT
# UniProt Q15303, whole entry R711C: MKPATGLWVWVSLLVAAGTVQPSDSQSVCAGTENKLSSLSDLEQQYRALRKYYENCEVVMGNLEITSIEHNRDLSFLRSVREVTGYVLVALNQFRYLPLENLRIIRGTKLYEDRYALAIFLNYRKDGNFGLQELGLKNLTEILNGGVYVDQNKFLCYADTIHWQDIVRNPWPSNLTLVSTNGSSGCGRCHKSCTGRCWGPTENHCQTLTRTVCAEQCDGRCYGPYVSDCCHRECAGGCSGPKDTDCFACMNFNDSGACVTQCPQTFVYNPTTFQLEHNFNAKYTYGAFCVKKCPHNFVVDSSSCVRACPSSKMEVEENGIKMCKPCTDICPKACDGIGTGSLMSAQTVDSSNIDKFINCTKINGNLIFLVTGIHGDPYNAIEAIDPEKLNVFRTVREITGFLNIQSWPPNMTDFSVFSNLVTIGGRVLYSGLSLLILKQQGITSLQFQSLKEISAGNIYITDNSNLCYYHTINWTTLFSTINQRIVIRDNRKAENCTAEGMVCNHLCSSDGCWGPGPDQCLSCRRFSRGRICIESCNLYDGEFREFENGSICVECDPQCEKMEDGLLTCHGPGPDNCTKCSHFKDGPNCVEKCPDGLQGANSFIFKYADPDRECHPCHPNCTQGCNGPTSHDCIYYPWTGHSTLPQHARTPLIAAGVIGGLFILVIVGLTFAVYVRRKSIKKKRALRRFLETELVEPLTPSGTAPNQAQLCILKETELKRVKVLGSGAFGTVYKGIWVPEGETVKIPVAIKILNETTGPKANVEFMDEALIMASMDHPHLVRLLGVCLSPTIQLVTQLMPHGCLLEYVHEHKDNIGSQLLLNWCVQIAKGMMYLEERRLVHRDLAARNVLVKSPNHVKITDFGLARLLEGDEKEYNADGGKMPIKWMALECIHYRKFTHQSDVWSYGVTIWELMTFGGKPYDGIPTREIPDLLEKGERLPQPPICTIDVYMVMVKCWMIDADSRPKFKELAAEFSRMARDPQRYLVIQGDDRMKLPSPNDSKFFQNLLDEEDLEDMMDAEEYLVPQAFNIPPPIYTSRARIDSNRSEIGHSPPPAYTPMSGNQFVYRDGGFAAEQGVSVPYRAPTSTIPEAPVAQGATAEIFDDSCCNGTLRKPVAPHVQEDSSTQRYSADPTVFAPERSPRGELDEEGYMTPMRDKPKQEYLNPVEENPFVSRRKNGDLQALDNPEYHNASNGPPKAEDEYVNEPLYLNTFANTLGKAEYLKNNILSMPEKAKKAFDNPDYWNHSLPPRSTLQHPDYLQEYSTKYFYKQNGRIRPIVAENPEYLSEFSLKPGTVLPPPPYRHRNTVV
# UniProt O75460: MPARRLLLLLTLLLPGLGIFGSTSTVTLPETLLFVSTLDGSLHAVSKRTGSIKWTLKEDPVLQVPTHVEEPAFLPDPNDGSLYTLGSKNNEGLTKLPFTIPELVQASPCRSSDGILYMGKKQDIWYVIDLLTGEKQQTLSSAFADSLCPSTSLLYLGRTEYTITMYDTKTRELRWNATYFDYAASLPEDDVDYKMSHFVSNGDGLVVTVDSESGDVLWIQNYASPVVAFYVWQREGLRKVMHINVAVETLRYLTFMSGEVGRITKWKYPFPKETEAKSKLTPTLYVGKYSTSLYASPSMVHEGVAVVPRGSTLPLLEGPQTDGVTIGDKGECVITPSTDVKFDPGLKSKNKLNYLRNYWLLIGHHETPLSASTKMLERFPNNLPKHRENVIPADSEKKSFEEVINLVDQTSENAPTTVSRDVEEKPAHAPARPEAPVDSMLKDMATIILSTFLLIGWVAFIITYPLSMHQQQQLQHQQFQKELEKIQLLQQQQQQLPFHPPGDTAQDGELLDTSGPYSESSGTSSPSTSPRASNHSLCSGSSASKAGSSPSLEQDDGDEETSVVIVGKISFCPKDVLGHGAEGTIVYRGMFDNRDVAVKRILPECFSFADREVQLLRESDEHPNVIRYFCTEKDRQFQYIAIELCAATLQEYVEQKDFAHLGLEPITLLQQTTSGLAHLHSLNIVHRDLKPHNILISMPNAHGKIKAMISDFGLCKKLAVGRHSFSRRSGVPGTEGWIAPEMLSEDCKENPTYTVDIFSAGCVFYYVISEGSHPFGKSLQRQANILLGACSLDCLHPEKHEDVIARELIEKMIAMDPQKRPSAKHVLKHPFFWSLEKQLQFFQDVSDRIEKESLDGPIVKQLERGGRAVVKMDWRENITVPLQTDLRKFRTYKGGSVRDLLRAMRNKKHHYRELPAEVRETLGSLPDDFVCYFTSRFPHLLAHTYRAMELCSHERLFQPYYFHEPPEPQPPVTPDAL
# UniProt P11362, whole entry, looked up: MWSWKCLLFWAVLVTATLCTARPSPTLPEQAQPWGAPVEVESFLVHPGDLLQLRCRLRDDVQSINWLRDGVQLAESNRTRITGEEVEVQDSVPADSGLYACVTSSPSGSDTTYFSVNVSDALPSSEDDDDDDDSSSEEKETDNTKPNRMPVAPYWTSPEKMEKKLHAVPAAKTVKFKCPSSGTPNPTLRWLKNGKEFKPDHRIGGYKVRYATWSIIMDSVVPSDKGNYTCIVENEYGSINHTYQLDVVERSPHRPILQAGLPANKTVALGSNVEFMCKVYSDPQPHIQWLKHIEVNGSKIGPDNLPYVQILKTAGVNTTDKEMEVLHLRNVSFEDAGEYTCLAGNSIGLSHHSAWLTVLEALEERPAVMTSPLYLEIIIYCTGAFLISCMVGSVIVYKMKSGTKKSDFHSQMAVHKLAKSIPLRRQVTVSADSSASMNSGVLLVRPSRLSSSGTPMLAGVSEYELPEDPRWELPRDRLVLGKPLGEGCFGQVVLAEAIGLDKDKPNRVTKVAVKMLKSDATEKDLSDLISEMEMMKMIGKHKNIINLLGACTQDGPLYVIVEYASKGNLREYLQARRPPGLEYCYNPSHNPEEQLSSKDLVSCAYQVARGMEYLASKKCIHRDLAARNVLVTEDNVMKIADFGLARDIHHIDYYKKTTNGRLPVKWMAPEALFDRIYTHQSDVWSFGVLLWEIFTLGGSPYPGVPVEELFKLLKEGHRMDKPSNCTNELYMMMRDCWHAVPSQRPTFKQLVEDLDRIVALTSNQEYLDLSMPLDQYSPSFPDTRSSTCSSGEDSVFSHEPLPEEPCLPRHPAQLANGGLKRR
# UniProt P21802, whole entry, looked up: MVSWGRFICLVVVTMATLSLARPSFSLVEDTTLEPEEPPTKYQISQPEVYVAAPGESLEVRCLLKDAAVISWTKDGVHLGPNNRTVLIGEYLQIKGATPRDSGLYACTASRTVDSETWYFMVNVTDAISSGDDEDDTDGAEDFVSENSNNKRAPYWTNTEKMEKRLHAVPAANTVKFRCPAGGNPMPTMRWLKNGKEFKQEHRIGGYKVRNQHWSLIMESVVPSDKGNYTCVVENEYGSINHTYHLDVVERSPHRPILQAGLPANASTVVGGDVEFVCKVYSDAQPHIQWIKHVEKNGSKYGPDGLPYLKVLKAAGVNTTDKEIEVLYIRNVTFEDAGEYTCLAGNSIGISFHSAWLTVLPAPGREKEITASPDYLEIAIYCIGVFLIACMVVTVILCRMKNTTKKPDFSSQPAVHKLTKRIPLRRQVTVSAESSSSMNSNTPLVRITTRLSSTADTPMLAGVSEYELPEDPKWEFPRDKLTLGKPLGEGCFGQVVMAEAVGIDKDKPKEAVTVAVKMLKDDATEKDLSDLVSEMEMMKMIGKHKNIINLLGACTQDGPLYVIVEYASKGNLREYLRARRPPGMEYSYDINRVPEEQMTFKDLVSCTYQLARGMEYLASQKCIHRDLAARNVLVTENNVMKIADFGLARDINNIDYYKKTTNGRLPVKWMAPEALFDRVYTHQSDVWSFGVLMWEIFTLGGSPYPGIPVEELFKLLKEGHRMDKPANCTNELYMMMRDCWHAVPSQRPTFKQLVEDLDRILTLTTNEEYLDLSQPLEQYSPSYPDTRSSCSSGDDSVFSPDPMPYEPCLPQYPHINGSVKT
# Where a name gives a salt, the structure may show the parent alone. Some of the results follow. The calls rarely recur for the same compound in another form.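 Kinases were expressed as nanoluciferase fusions in K562 cells and luminescence was read every 4 h between 2 and 18 h as percent of control, DMSO set to 100% and a positive control to 0%. A time point counts as decreased when the signal drops significantly (2 sigma). The hit call is the authors' own, does not follow from the count of time points alone, and its rule is not shown.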
# Tests used:
# Assay in all cases: number of time points (of 5) at which kinase-Nluc abundance scored as decreased, DMSO-normalised (count); higher = more persistent destabilization
# Conditions in all cases: K562; 2-18 h
# EGFR_L861Q = EGFR_L861Q (UniProt P00533)
# EGFR_T790M = EGFR_T790M (UniProt P00533)
# EPHA2 = EPHA2 (UniProt P29317)
# ERBB3 = ERBB3 (UniProt P21860)
# [1] = biological target: ERBB4_R711C (clone: ERBB4_mut) (UniProt Q15303)
# ERN1 = ERN1 (UniProt O75460)
# FGFR1 = FGFR1 (UniProt P11362)
# FGFR2 = FGFR2 (UniProt P21802)
# FGFR3 = FGFR3 (UniProt P22607)
# FGR = FGR (UniProt P09769)
Structure (SMILES),number of time points (EGFR_L861Q),number of time points (EGFR_T790M),number of time points (EPHA2),number of time points (ERBB3),number of time points [1],number of time points (ERN1),number of time points (FGFR1),number of time points (FGFR2),number of time points (FGFR3),number of time points (FGR)
COc1cc(-c2cnc(N)c(-c3ccc(NC(=O)c4cn(CC5CCOCC5)cc(-c5ccc(C)cn5)c4=O)cc3F)c2)ccc1OC[C@H]1COCCO1 [DS-1205b (free base)] (10 µM),0,0,0,0,0,0,0,0,0,0
CC(C)(C)NS(=O)(=O)c1cncc(-c2cc(F)c3nc(N)nn3c2)c1 (10 µM),0,0,0,0,0,0,0,0,0,0
COc1cc(Nc2nc3ccccc3nc2NS(=O)(=O)c2ccc(NC(=O)c3ccc(C)c(OC)c3)cc2)cc(OC)c1 (10 µM),0,0,0,0,0,0,0,0,0,0
C[C@@H]1O[C@@H](O[C@H]2[C@H](OC(=O)[C@]34CCC(C)(C)C[C@H]3C3=CC[C@@H]5[C@@]6(C)C[C@H](O)[C@H](O[C@@H]7O[C@H](CO)[C@@H](O)[C@H](O)[C@H]7O)C(CO)(CO)[C@@H]6CC[C@@]5(C)[C@]3(C)C[C@H]4O)OC[C@H](O)[C@@H]2O)[C@H](O)[C@H](O)[C@H]1O[C@@H]1OC[C@@H](O)[C@H](O[C@@H]2OC[C@](O)(CO)[C@H]2O)[C@H]1O [Platycodin D] (10 µM),0,0,0,0,0,0,0,0,0,0
C[C@H]1CNC(=O)c2cnn3ccc(nc23)N[C@H](C)c2cc(F)ccc2O1 [Repotrectinib] (2.5 µM),1,0,0,2,1,0,0,2,0,0
C=CC(=O)Nc1cc(C(=O)NC)cc(-c2n[nH]c3ccccc23)c1 (10 µM),0,0,0,0,2,0,0,0,0,0
N#Cc1c[nH]c2ccc(-c3ccc(-c4c(O)cccc4O)cc3)cc12 (10 µM),0,0,0,0,0,0,0,0,0,0
CC(C)Cn1cc(C#N)c2cc(Oc3ccc(NC(=O)[C@@H]4CCCN4)cc3)ccc21 (10 µM),0,0,0,0,0,0,0,0,0,0
CC(=O)NCC(=O)N[C@@H](C)C(=O)N[C@@H](CCC(N)=O)C(=O)N[C@@H](Cc1ccccc1)C(=O)N[C@@H](CO)C(=O)N[C@@H](CCCCN)C(=O)N[C@H](C(=O)N[C@@H](C)C(=O)N[C@@H](C)C(=O)N[C@@H](CCCCN)C(=O)O)[C@@H](C)O (10 µM),0,0,0,0,0,0,0,0,0,0
C[C@@H]1CC[C@]2(C(=O)O)CC[C@]3(C)C(=CC[C@@H]4[C@@]5(C)CC[C@H](O)[C@@](C)(CO)[C@@H]5CC[C@]43C)[C@@H]2[C@]1(C)O [Rotundic acid] (10 µM),0,0,0,0,0,0,0,0,0,0
Cc1cccc(-c2[nH]c(C(C)(C)C)nc2-c2ccc3c(c2)OCO3)n1 (2.5 µM),0,0,0,0,0,0,0,0,0,0
CCn1c(-c2nonc2N)nc2c(C#CCO)ncc(OCCCN)c21 [AKT Kinase Inhibitor] (10 µM),0,0,0,0,0,0,0,0,0,0
CS(=O)(=O)N1CCN(Cc2cn3cc(-c4cnc(N)nc4)nc(N4CCOCC4)c3n2)CC1 (10 µM),0,0,0,0,0,0,0,0,0,0
CC1=C(C(=O)Nc2ccc3[nH]ncc3c2)C(c2ccc(F)c(C(=O)NCc3ccccn3)c2)NC(=O)N1 (stereo not given) (10 µM),0,0,0,0,0,0,0,0,0,0
COC(=O)c1cc2c(OC(C)C)cc(OC(C)C)cc2[nH]1 (2.5 µM),0,0,0,0,0,0,0,0,0,0
CCc1ccc(NC(=O)Nc2ccccc2)cc1 (10 µM),0,0,0,0,0,0,0,0,0,0

# Part of the list above in order of length of the SMILES, largest number first:
Structure (SMILES),number of time points (EGFR_L861Q),number of time points (EGFR_T790M),number of time points (EPHA2),number of time points (ERBB3),number of time points [1],number of time points (ERN1),number of time points (FGFR1),number of time points (FGFR2),number of time points (FGFR3),number of time points (FGR)
C[C@@H]1O[C@@H](O[C@H]2[C@H](OC(=O)[C@]34CCC(C)(C)C[C@H]3C3=CC[C@@H]5[C@@]6(C)C[C@H](O)[C@H](O[C@@H]7O[C@H](CO)[C@@H](O)[C@H](O)[C@H]7O)C(CO)(CO)[C@@H]6CC[C@@]5(C)[C@]3(C)C[C@H]4O)OC[C@H](O)[C@@H]2O)[C@H](O)[C@H](O)[C@H]1O[C@@H]1OC[C@@H](O)[C@H](O[C@@H]2OC[C@](O)(CO)[C@H]2O)[C@H]1O [Platycodin D] (10 µM),0,0,0,0,0,0,0,0,0,0
CC(=O)NCC(=O)N[C@@H](C)C(=O)N[C@@H](CCC(N)=O)C(=O)N[C@@H](Cc1ccccc1)C(=O)N[C@@H](CO)C(=O)N[C@@H](CCCCN)C(=O)N[C@H](C(=O)N[C@@H](C)C(=O)N[C@@H](C)C(=O)N[C@@H](CCCCN)C(=O)O)[C@@H](C)O (10 µM),0,0,0,0,0,0,0,0,0,0
CS(=O)(=O)N1CCN(Cc2cn3cc(-c4cnc(N)nc4)nc(N4CCOCC4)c3n2)CC1 (10 µM),0,0,0,0,0,0,0,0,0,0
C[C@H]1CNC(=O)c2cnn3ccc(nc23)N[C@H](C)c2cc(F)ccc2O1 [Repotrectinib] (2.5 µM),1,0,0,2,1,0,0,2,0,0
Cc1cccc(-c2[nH]c(C(C)(C)C)nc2-c2ccc3c(c2)OCO3)n1 (2.5 µM),0,0,0,0,0,0,0,0,0,0
C=CC(=O)Nc1cc(C(=O)NC)cc(-c2n[nH]c3ccccc23)c1 (10 µM),0,0,0,0,2,0,0,0,0,0

# The list continues:

Structure (SMILES),number of time points (EGFR_L861Q),number of time points (EGFR_T790M),number of time points (EPHA2),number of time points (ERBB3),number of time points [1],number of time points (ERN1),number of time points (FGFR1),number of time points (FGFR2),number of time points (FGFR3),number of time points (FGR)
O=c1ccc2cc(O)c(O)cc2o1 [Esculetin] (10 µM),0,0,0,0,0,0,0,0,0,0
CNC(=O)c1c(C)oc2cc(Oc3ncnc4cc(OC)c(OC)cc34)ccc12 [Fruquintinib] (10 µM),0,0,0,0,0,0,0,0,0,0
Cn1c(=O)c(Oc2ccc(F)cc2F)cc2cnc(NC(CCO)CCO)nc21 [Pamapimod] (10 µM),0,0,0,0,0,0,0,0,0,0
C[C@@H]1CN(CC(=O)Nc2ccc3c(c2)Cc2cccc(-c4cc(=O)cc(N5CCOCC5)o4)c2S3)C[C@H](C)O1 (2.5 µM),0,0,0,0,0,0,0,0,0,0
C=CCN(/C=C1/C(=O)O[C@H](COC)[C@@]2(C)C1=C(O)C(=O)C1=C2[C@H](OC(C)=O)C[C@]2(C)C(=O)CC[C@@H]12)CC=C [Sonolisib] (2.5 µM),0,0,0,0,0,0,0,0,0,0
O=C(CCc1ccc2n1[B-](F)(F)[N+]1=C(c3ccc[nH]3)C=CC1=C2)ON1C(=O)CCC1=O [Py-BODIPY-NHS ester] (2.5 µM),0,0,0,0,0,0,0,0,0,0
COc1ccc(S(=O)(=O)N(CCO)c2ccccc2CN(C)CC=Cc2ccc(Cl)cc2)cc1 (2.5 µM),0,0,0,0,0,0,0,0,0,0
Oc1ccc2ccccc2c1SSc1c(O)ccc2ccccc12 (10 µM),0,0,0,0,0,0,0,0,0,0
CS(=O)(=O)N1CCc2c(-c3cnc(N)nc3)nc(N3CCOCC3)nc21 (10 µM),0,0,0,0,0,0,2,0,0,0
COc1cc(-c2cc(-c3cccc(O)c3)cnc2N)cc(OC)c1OC (2.5 µM),0,0,0,2,2,0,0,1,0,0
CC(C)(C)c1ccc(C(=O)Nc2cn3cc(-n4ccnc4)ccc3n2)cc1 (10 µM),0,0,0,0,0,0,0,0,0,0
Cn1cc(C2=C(c3c4n(c5ccccc35)CCC(CN)C4)C(=O)NC2=O)c2ccccc21 (stereo not given) [Bisindolylmaleimide X (hydrochloride)] (2.5 µM),0,0,0,0,0,0,0,0,0,0
CNC(=O)c1ccc(-c2cnc3ncc(Cc4ccc5ncccc5c4)n3n2)cc1F [Capmatinib] (10 µM),0,0,0,0,0,0,0,0,0,0
Cc1nc(Nc2ncc(C(=O)Nc3c(C)cccc3Cl)s2)cc(N2CCN(C(=O)CCCCCCC(=O)N[C@H](C(=O)N3C[C@H](O)C[C@H]3C(=O)NCc3ccc(-c4scnc4C)cc3)C(C)(C)C)CC2)n1 (2.5 µM),2,1,1,3,3,2,2,3,1,3
CC(C)=CCC/C(C)=C/CC/C(C)=C/CSc1ccccc1C(=O)O [Salirasib] (10 µM),0,0,0,0,0,0,0,0,0,0
